Data as given in publication PMC13411936.

Chains of the proteins cited; added tags and fusions are not shown. Lines headed by an entry give the natural chain unless they say otherwise; changes in a name come on top.
UniProt Q9HZF9: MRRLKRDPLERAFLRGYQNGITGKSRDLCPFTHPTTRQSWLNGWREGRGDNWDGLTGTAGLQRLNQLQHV
UniProt Q9HXI8: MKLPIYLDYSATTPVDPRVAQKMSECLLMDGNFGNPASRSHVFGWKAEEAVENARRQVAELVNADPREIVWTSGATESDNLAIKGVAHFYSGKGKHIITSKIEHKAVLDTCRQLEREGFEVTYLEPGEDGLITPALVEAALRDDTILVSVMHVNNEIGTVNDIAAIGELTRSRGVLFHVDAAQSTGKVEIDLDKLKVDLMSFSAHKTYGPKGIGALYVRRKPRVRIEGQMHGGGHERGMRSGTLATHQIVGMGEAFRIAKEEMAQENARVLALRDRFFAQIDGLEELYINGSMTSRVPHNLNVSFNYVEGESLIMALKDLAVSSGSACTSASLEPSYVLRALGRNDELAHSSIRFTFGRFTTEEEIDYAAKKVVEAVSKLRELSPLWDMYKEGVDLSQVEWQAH
UniProt O54439: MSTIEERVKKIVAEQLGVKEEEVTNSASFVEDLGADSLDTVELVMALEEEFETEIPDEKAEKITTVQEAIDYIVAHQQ

These molecules were tested against BatR-3xFlag (P. aeruginosa PAO1) (UniProt Q9HZF9) (assay: affinity purification with mass spectrometry; co-immunoprecipitation of BatR-3xFlag (bait) with PAO1 proteins, mass spectrometry of the precipitate; protocol in S5 Data).

Molecule | binding
Cysteine desulfurase IscS (from UniProt Q9HXI8 1-404) | binds
Acyl carrier protein 1 (from UniProt O54439 1-78) | binds
Uncharacterized protein PA2503 (protein, UniProt Q9I0X9 1-417) MELSPAERQLLLAHRLAVFDGCVVYDAQPPVSAEHVQRLAEGLAGPIPEDLLRLWRTCFGGRLGYDLEVDYDGHRHPFSFSELFYPDSDGYHDLWGWIEHERELAAEAAAEEGRDWNGKLAYLPFGGFEYLERLYVCVEPGPEHGAVIAWSHGLPPAWAGRLHQDSVTRLADDVGGLFRLLSFEQDPFDAENACGVADELLEALDALEAAGEPGKALKGRLEVLLRQRILDWRPALADGSLAAEPRLRQLALAEAAQDGDIDLLQRLRDAGCDFAETLRGRGGVLEACLARGRLEAARWLLDQGVAVHQDSLQIGAAHLDAVLAERLLRLGAISDPNTVLLALQYGDADAARIMARPLLEESPARANALRLALASRAERERSDARRVRSGKMGSNRSPDDYLALAERLERFLAELPG | binds
TPR repeat-containing protein PA4667 (protein, UniProt P42810 1-590) MMAPPSQVQGRLSSSMNKSLALLTVTLLLGGCQSLIHKTPDGTPPVEDTAVETKAKPEKYGSFSEDSLYSLLVAELAGQRNRFDIALSNYVVQAQKTRDPGVSERAFRIAEYLGADQEALDTSLLWARSAPDNLDAQRAAAIQLARAGRYEESMVYMEKVLNGQGDTHFDFLALSAAETDPDTRAGLLQSFDHLLKKYPNNGQLLFGKALLLQQDGRPDEALTLLEDNSASRHEVAPLLLRSRLLQSMKRSDEALPLLKAGIKEHPDDKRVRLAYARLLVEQNRLDDAKAEFAGLVQQFPDDDDLRFSLALVCLEAQAWDEARIYLEELVERDSHVDAAHFNLGRLAEEQKDTARALDEYAQVGPGNDFLPAQLRQTDVLLKAGRVDEAAQRLDKARSEQPDYAIQLYLIEAEALSNNDQQEKAWQAIQEGLKQYPEDLNLLYTRSMLAEKRNDLAQMEKDLRFVIAREPDNAMALNALGYTLADRTTRYGEARELILKAHKLNPDDPAILDSMGWINYRQGKLADAERYLRQALQRYPDHEVAAHLGEVLWAQGRQGDARAIWREYLDKQPDSDVLRRTIKRLTGAETP | binds
Probable transcriptional regulator PA2897 (protein, UniProt Q9HZV0 1-479) MTNLLLYQRIAQQLAEDIRRGVYQPGERVPSVRKLSTQLNVSHATVLQAYATLEDQGLIRARPQSGFYVHRTPALTAPTPDIARVERPGLVTRSSIINQVLAESRREGVFPLGAAVPHVDYLPVRALHQQLAKVTRFQSPRAFSYMFSPGFEPLRRQVAIRMRDAGVVVDPSQVTITHGCVDAIHMALRVLTRPGDLIATESPSYYGLLQLADVLGLKVIEIPSDPRTGISLEALQLAANQWSIKALVLTARLSNPFGGTIPEDRQKQLLKLTAEHNIGVVEDDIYGELMFDQGQARSLKSHDRDGRVIYCSSFSKTISPGVRIGWIIAERYQEEIRRLQTFTTHSACTVTQMGVAAYLENGGYDRHLRYIRQEYRKNMTAYQLAVQQYFPEGTQMTRPKGGFILWVSLPAKVNTKELHVRALEQGISIAPGLIFSNTEQFNNCLRLTCGIPWNREAERAIMTLGMLAGQLCQEGLIAA | binds
IscR (protein, UniProt Q9HXI7 1-163) MRLTTKGRYAVTAMLDLALHAQQGPVSLADISERQGISLSYLEQLFAKLRRGNLVTSVRGPGGGYQLSRHMSGIHVAQVIDAVNESVDATRCQGQGDCHSGDTCLTHHLWCDLSLQIHEFLSGISLADLVSRQEVQEVALRQDERRCSGKTPRLDKIEASAID | binds
3-demethoxyubiquinol 3-hydroxylase (protein, UniProt Q9I5R6 1-215) MSADRHYSPIDRFLLQADSALRTLLPFSGQPARPSPAIVEPDGELSEEDTRHIAGLMRINHTGEVCAQALYQGQSLTAKLPEVREAMEEAAEEEIDHLAWCEQRIRQLGSRPSVLNPIFYGLSFGVGAAAGLVSDRVSLGFVAATEDQVCKHLDEHLAQIPQEDRKSRAILEQMRIDEEQHSSNALAAGGLRFPAPVKLGMSLLAKVMTKSTYRI | binds
GTP cyclohydrolase 1 type 2 homolog (protein, UniProt Q9HVX2 1-252) MAIALSTLVEEADRYLDAARIQDYCPNGLQVEGRPQVRRIVSGVTASQALLDAAVEADADVVLVHHGYFWKGENPCVVGMKQRRLKTLLNNDISLLAYHLPLDLHPEVGNNVQLARQLGFEVEGPLEPGNPRSIVLLGSLAEPMQPADFARHVRDALGREPLLVDAGQPIRRIAWCTGGAQGYIDQAIAAGVDAYLTGEVSEQTVHSARENGISFIAAGHHATERYGVQALGDYLGKRFAIEHLFIDCPNPA | binds
Cell division topological specificity factor (protein, UniProt Q9HYZ5 1-84) MSLLDFFRSRKSQNSASIAKERLQIIVAHERGQRAQPDYLPQLQKDLLEVIRKYVPIDQEQIQVELENQGNCSILELNITLPDR | binds
Phosphoribosylformylglycinamidine cyclo-ligase (protein, UniProt Q9I513 1-353) MSSKQPSLSYKDAGVDIDAGEALVERIKGVAKRTARPEVMGGLGGFGALCEIPAGYKQPVLVSGTDGVGTKLRLALNLNKHDSIGQDLVAMCVNDLVVCGAEPLFFLDYYATGKLNVDVAATVVTGIGAGCELAGCSLVGGETAEMPGMYEGEDYDLAGFCVGVVEKAEIIDGSRVQAGDALIALPSSGPHSNGYSLIRKIIEVSGADIAQVQLDGKPLADLLMAPTRIYVKPLLQLIKQTGAVKAMAHITGGGLLDNIPRVLPDNAQAVIDVASWNRPAVFDWLQEQGNVDETEMHRVLNCGVGMVICVAQSDAEKALEVLRAAGEQPWQIGRIETCGADAERVVLNNLKNH | binds
Flavohemoprotein1 (protein, UniProt Q9I0H4 1-393) MLSNAQRALIKATVPLLETGGEALITHFYRTMLGEYPEVRPLFNQAHQASGDQPRALANGVLMYARHIDQLQELGPLVAKVVNKHVSLQVLPEHYPIVGTCLLRAIREVLGEQIATDEVLEAWGAAYQQLADLLIEAEESVYAASAQADGGWRGVRRFRVARKQAESEEITSFYLEPVDGQPLLAFQPGQYIGLRLDIDGEEVRRNYSLSAASNGREYRISVKREAGGRVSNYLHDRVAEGDELDLFPPAGDFVLRDSDKPLVLITAGVGITPALAMLQEALPQARPIRFIHCARHGGVHAFRDWIEDVSAQHEQVEHFFCYSEPRAGDSADAEGLLSREKLADWLPQERDLDAYFLGPRPFMAQVKRHLADLGVPSQQCHYEFFGPAAALDA | binds
50S ribosomal protein L22 (protein, UniProt Q9HWE0 1-110) MEVAAKLSGARISAQKARLVADQIRGKKVGEALNLLAFSSKKAAEIMKKVLESAVANAEHNEGADVDDLKVSTVFVNEGRSLKRIMPRAKGRADRIVKRSCHITVKVADK | binds
Bifunctional protein HldE (protein, UniProt Q9HUG9 1-474) MKLSMPRFDQAPVLVVGDVMLDRYWHGATSRISPEAPVPVVRVEQHEDRPGGAANVALNIAALGAQALLVGVTGRDEAADSLANSLKAAGVDARFQRIDSQPTIVKLRVMSRHQQLLRVDFEEPFRTDAAALAVDVESLLAKVKVLVLSDYGKGALQNHQVLIQAARARNIPVLADPKGKDFAIYRGASLITPNLSEFETIVGRCADEAELVAKGQALMSELDLGALLVTRGEHGMTLLRHGQPALHLPARAREVFDVTGAGDTVISTLAAALAAGEELPSAVGLANLAAGIVVGKLGTAAISAPELRRAVQREQGSERGVLGLEQLLLAIEDARAHGEKIVFTNGCFDILHAGHVTYLEQARAQGDRLIVGVNDDASVTRLKGVGRPINSVDRRMAVLAGLGAVDWVVSFAEDTPERLLEQVRPDVLVKGGDYGVEQVVGAQIVKAYGGEVRVLGLVENSSTTAIVEKIRQKG | binds
Stress response kinase A (protein, UniProt Q9I632 1-324) MSHPFDQLTPDLVLDAVESLGYLSDARVLALNSYENRVYQVGIEDGEPLIAKFYRPDRWSDAAIREEHAFSAELAECEVPVVAPLSRDGESLFAFSGFRFALFPRRGGRAPEPGNLDQLYRLGQLLGRLHAVGATRPFEHREALAVDNFGHASLATLLEGNFIPRSLLPAYESVARDLLKRLDALFAEVPYQPIRLHGDCHPGNLLCRDDVYHMVDLDDCRMGPALQDLWMMLAGERHERLAQIAELVDGYNEFHDFDPRQLPLLEGLRSLRLMHYSAWLARRWDDPAFPPSFPWFGSERYWGEQVLVLREQLAALDEEPLRLF | binds
50S ribosomal protein L18 (protein, UniProt Q9HWF1 1-116) MSVKKETRLRRARKARLKMRELETVRLCVYRSSQHIYAQVIAADGGKVLASASTLDKDLREGATGNIDAAKKVGQLVAERAKAAGVTQVAFDRSGFKYHGRVKALADAAREGGLEF | binds
PslC (protein, UniProt Q9I1N6 1-303) MRCALVIPTRNAGAHLDRLLPALAAQRRQPDSILVVDSRSSDDTVERFRAFGARVEVIEPASFNHGGTRRWASQQVEADALIYLTQDAIPASPDSFANLLDELYAEADIGVAYGRQLPHPGAGLLGAQARRFNYPPESRSKRLADASELGIKTCFSSDSFSAYRSDALAAVGDFPEDVIGSEDAYVAARLLQAGYAVRYAASAEVYHSHDYRLLEEFRRYFDIGVFYGRERWIRAAFGGAGGEGKRYVLAEIQALRAAGALYRVPEIALRSAFKLLGYRLGQLERHLPVALKRRISMFPGYWK | binds
Protein PilG (protein, UniProt P46384 1-135) MEQQSDGLKVMVIDDSKTIRRTAETLLKKVGCDVITAIDGFDALAKIADTHPNIIFVDIMMPRLDGYQTCALIKNNSAFKSTPVIMLSSKDGLFDKAKGRIVGSDQYLTKPFSKEELLGAIKAHVPSFTPVDAVS | binds
Transcription antitermination protein NusB (protein, UniProt Q9HWX6 1-159) MSNQDSGNPAAKPPKGKTAARRKARSLAVQALYSWQIAGQPLHEIEAQFRTDNDFSEVDGAYFHEILHGVPRQKSELDSTFEPCLDRPLAEIDPVELAILRLSTYELRNRIDVPYKVVINEGIELAKTFGATDGHKFVNGVLDKLAPRLRAAELRGGKR | binds
GTP cyclohydrolase-2 (protein, UniProt Q9HWY1 1-205) MSVVFVAASKLPTPFGEFTMHGFLDEESGKEHVALSMGDIADGAPVLGRLHSECLTGDALFSLRCDCGFQLEGALAAIAEEGRGVLLYLRQEGRGIGLLNKIRAYELQDGGADTVEANLQLGFGADQRDYAMCQPMLAHLGVSSLRLMTNNPRKVKALESYAITVAERVPLQKGLNKHNRRYLATKAGKLGHMLGSLHQGEAETT | binds
Uncharacterized protein PA3046 (protein, UniProt Q9HZG2 1-114) MATNRSRRLRKKLCVDEFQELGFELNFHYKEGVDADAVNAFMLRFIDQAIEANELTYGGCDEFGFVCLARRGSVNEEQRALIEAWLKQQPELASVEVGALVDAWYPEQPVLPKL | binds

Results are given in words; binding and its absence hold for the method and conditions named. In cells and extracts the contact can be indirect. These calls come from enrichment with a bait or labelling near it, and not all partners need be listed.
